Measured values published in PubChem BioAssay AID192 (DTP/NCI, 2004).
The list is a part of this screen's results and no random one: it is rich in T/C values a quarter to a half above the control, in often repeated tests (any T/C) and in doses without a T/C. Further doses and runs are listed elsewhere. T/C is the treated group as % of the vehicle group. Some doses have a count of surviving animals in place of a T/C: the source holds a T/C of zero for them, seemingly a mark for toxic or unscored doses. Some survivor counts are full or nearly so, which does not show that the dose was tolerated: survival well below the control is almost never listed, so the zero probably covers shortened survival too. Survivors were counted at the toxicity check, usually on the fifth day, unless a day is given; later deaths do not show. Schedules are NCI's codes, read here as Q, the interval in days (D) or hours (H), X, the number of doses. Some entries were tested several times; their values stand side by side, smallest first. For survival time, the PubChem record calls one and a half times the control and up active, and a quarter to a half above the control has no call in these data; cut-offs in other NCI protocols can differ. Some T/C values carry the count of animals alive at the toxicity check (mostly the fifth day); without a count, all were alive then.

System: BDF1 mice, B16 melanoma ip, median survival T/C
Experiment: NCI In Vivo Anticancer Drug Screen. Data for tumor model B16 Melanoma (intraperitoneal) in B6D2F1 (BDF1) mice
Conditions: T/C endpoint: median survival time, higher T/C = longer survival
How it was run: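 Tumor-bearing mice received test compound or vehicle. Survival or tumor size was then measured in both groups. The treated-group figure was divided by the control-group figure.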

[1] = dose: 100.0 mg/kg/injection, schedule: Q01DX009 (ip), vehicle: Klucel (hydroxypropylcellulose) (HPC)
[2] = dose: 200.0 mg/kg/injection, schedule: Q01DX009 (ip), vehicle: Klucel (hydroxypropylcellulose) (HPC)
[3] = dose: 400.0 mg/kg/injection, schedule: Q01DX009 (ip), vehicle: Klucel (hydroxypropylcellulose) (HPC)
[4] = dose: 300.0 mg/kg/injection, schedule: Q01DX009 (ip), vehicle: Klucel (hydroxypropylcellulose) (HPC)
[5] = dose: 100.0 mg/kg/injection, schedule: Q01DX009 (ip), vehicle: saline
[6] = dose: 25.0 mg/kg/injection, schedule: Q01DX009 (ip), vehicle: saline with Tween-80
[7] = dose: 400.0 mg/kg/injection, schedule: Q04DX003 (ip), vehicle: saline with Tween-80
[8] = dose: 25.0 mg/kg/injection, schedule: Q01DX009 (ip), vehicle: saline
[9] = dose: 200.0 mg/kg/injection, schedule: Q01DX009 (ip), vehicle: saline
[10] = dose: 400.0 mg/kg/injection, schedule: Q01DX009 (ip), vehicle: saline
[11] = dose: 50.0 mg/kg/injection, schedule: Q01DX009 (ip), vehicle: saline
[12] = dose: 46.8 mg/kg/injection, schedule: Q01DX009 (ip), vehicle: saline
[13] = dose: 187.2 mg/kg/injection, schedule: Q04DX003 (ip), vehicle: saline
[14] = dose: 200.0 mg/kg/injection, schedule: Q04DX003 (ip), vehicle: saline with Tween-80
[15] = dose: 100.0 mg/kg/injection, schedule: Q01DX009 (ip), vehicle: saline with Tween-80

C/C=C/C(=O)OCC1CCN(C)C1 (configuration not stated)
survivor count (dose: 400.0 mg/kg/injection, schedule: Q01DX009 (ip), vehicle: water): 5 of 8
survivor count (dose: 800.0 mg/kg/injection, schedule: Q01DX009 (ip), vehicle: water): 0 of 8

CC(C)c1ccc(NC(=O)NC2CCCCC2)cc1
survivor count [1]: 5 of 6
survivor count [2]: 6 of 6
survivor count [3]: 3 of 6

COc1cc([C@@H]2c3cc4c(c(O)c3C[C@H]3COC(=O)[C@@H]32)OCO4)cc(OC)c1OC
survivor count (dose: 2.0 mg/kg/injection, schedule: Q01DX009 (ip), vehicle: saline): 5 of 10
survivor count (dose: 2.0 mg/kg/injection, schedule: Q01DX009 (ip), vehicle: suspension in saline): 7 of 10
survivor count (dose: 4.0 mg/kg/injection, schedule: Q01DX009 (ip), vehicle: saline): 2 of 10
survivor count (dose: 4.0 mg/kg/injection, schedule: Q01DX009 (ip), vehicle: suspension in saline): 4 of 10

Cc1cc(Cl)ccc1NC(=O)Nc1ccccc1Cl
survivor count (dose: 75.0 mg/kg/injection, schedule: Q01DX009 (ip), vehicle: Klucel (hydroxypropylcellulose) (HPC)): 10 of 10
survivor count (dose: 150.0 mg/kg/injection, schedule: Q01DX009 (ip), vehicle: Klucel (hydroxypropylcellulose) (HPC)): 10 of 10
survivor count [4]: 10 of 10

OC12CCC[N+]1(Cc1ccccc1)CCC2 (configuration not stated)
survivor count [5]: 4 of 6

S=C=NCCCCCCCCCCCCN=C=S
survivor count [6]: 0 of 10

CN(C)c1ccc(C(N)=O)cn1
T/C (dose: 3.0 mg/kg/injection, schedule: Q01DX009 (ip), vehicle: Klucel (hydroxypropylcellulose) (HPC)): 138 % of control
T/C (dose: 6.0 mg/kg/injection, schedule: Q01DX009 (ip), vehicle: Klucel (hydroxypropylcellulose) (HPC)): 138 % of control

OC(Cc1nc(-c2ccccc2)c(-c2ccccc2)s1)(C(F)(F)F)C(F)(F)F
survivor count [7]: 10 of 10

CCC(=O)Oc1ccc(/C=N/NC(N)=S)nc1
T/C [8]: 128 % of control
T/C [5]: 133 % of control
survivor count [9]: 10 of 10
survivor count [10]: 10 of 10

Cc1cn(C2CC(O)C(CO)O2)c(=O)[nH]c1=O (configuration not stated)
survivor count [8]: 10 of 10
survivor count [11]: 10 of 10
survivor count [10]: 9 of 10

Nc1[nH]c(=O)nc2nc[nH]c12
survivor count [5]: 6 of 10
survivor count [9]: 4 of 10
survivor count [10]: 3 of 10

O=C1N(c2nncs2)CCN1[N+](=O)[O-]
survivor count [1]: 10 of 10
survivor count [3]: 8 of 10

COc1cccc2c1C(=O)c1c(O)c3c(c(O)c1C2=O)CC(O)(C(C)=O)CC3OC1CC(N)C(O)C(C)O1 (configuration not stated)
T/C (dose: 5.8 mg/kg/injection, schedule: Q01DX009 (ip), vehicle: saline): 132 % of control
T/C (dose: 23.4 mg/kg/injection, schedule: Q04DX003 (ip), vehicle: saline): 125 % of control
survivor count (dose: 40.0 mg/kg/injection, schedule: Q01DX007 (ip), vehicle: water): 6 of 6
survivor count (dose: 40.0 mg/kg/injection, schedule: Q01DX009 (ip), vehicle: water): 8 of 8
T/C [12]: 128 % of control
survivor count [12]: 10 of 10
T/C (dose: 46.8 mg/kg/injection, schedule: Q04DX003 (ip), vehicle: saline): 125 % of control
T/C (dose: 93.6 mg/kg/injection, schedule: Q04DX003 (ip), vehicle: saline): 131 % of control
T/C [13]: 135 % of control
survivor count [13]: 10 of 10

Nc1ncnc2c1c1c(N)[nH]nc1n2C1OC(CO)C(O)C1O (configuration not stated)
survivor count [9]: 5 of 6

Cc1ccc(NC(=O)Nc2ccc(Cl)c(Cl)c2)cc1Cl
survivor count [1]: 10 of 10

Cc1[nH]c(=O)[nH]c(=O)c1C
survivor count (dose: 50.0 mg/kg/injection, schedule: Q01DX009 (ip), vehicle: Klucel (hydroxypropylcellulose) (HPC)): 10 of 10

CC(NC(=O)OCc1ccccc1)C(=O)O (configuration not stated)
survivor count [1]: 10 of 10
survivor count [2]: 9 of 10
survivor count (dose: 200.0 mg/kg/injection, schedule: Q04DX003 (ip), vehicle: Klucel (hydroxypropylcellulose) (HPC)): 10 of 10
survivor count [3]: 9 of 10
survivor count (dose: 400.0 mg/kg/injection, schedule: Q04DX003 (ip), vehicle: Klucel (hydroxypropylcellulose) (HPC)): 10 of 10

S=c1sc2ccccc2n1CN(c1ccccc1)c1ccc2ccccc2c1
survivor count [14]: 10 of 10
survivor count [7]: 10 of 10

Nc1nc(N)c2c(Cl)c(CNc3ccc(Cl)c(Cl)c3)ccc2n1
T/C (dose: 6.25 mg/kg/injection, schedule: Q01DX009 (ip), vehicle: saline with Tween-80): 125 % of control
T/C (dose: 8.0 mg/kg/injection, schedule: Q01DX009 (ip), vehicle: saline with Tween-80): 125 % of control
T/C (dose: 12.5 mg/kg/injection, schedule: Q01DX009 (ip), vehicle: saline with Tween-80): 137 % of control
survivor count [6]: 10 of 10
survivor count (dose: 50.0 mg/kg/injection, schedule: Q01DX009 (ip), vehicle: saline with Tween-80): 10 of 10
survivor count [15]: 10 of 10

CCCCCCCCCCOCCCCCCCCCC
survivor count [15]: 10 of 10

C=CCCC(=O)CCCC(=O)O[C@@H]1[C@@H]2[C@H](CC1(C)C)[C@H](O)[C@@]13O[C@@H]1[C@H](O)[C@@]1(CO1)[C@@]23C
T/C (dose: 25.0 micrograms/kg/injection, schedule: Q01DX009 (ip), vehicle: Klucel (hydroxypropylcellulose) (HPC)): 134 % of control

COc1cccc2c1C(=O)c1c(O)c3c(c(O)c1C2=O)C[C@@](O)(/C(C)=N\NC(=O)CO)C[C@@H]3OC1CC(N)C(O)C(C)O1 (some centres not stated)
T/C (dose: 0.78 mg/kg/injection, schedule: Q01DX009 (ip), vehicle: saline): 136 % of control
survivor count [8]: 7 of 10 and 6 of 6
survivor count (dose: 40.0 mg/kg/injection, schedule: Q01DX001 (ip), vehicle: water): 10 of 10
survivor count [11]: 0 of 6

CN(N)P(=S)(c1ccccc1)N(C)N
survivor count (dose: 25.0 mg/kg/injection, schedule: Q01DX009 (ip), vehicle: Klucel (hydroxypropylcellulose) (HPC)): 7 of 10

CCCC(=O)Nc1ncnc2c1ncn2C1OC2COP(=O)(O)OC2C1OC(=O)CCC (configuration not stated)
survivor count [10]: 7 of 7

CC1(C)COC(c2ccccc2)=N1
T/C [10]: 126 % of control [9 of 10 alive]

Cc1cccc(C2=NCCN2)c1C
T/C (dose: 10.0 mg/kg/injection, schedule: Q04DX003 (ip), vehicle: saline with Tween-80): 125 % of control

CNc1ccccc1C(N)=O
survivor count [3]: 10 of 10

CCCCCC#CC(=O)O
survivor count [4]: 10 of 10

NC(=O)c1ccc(-c2c3ccccc3cc3c2ccc2ccccc23)cc1
survivor count (dose: 200.0 mg/kg/injection, schedule: Q01DX009 (ip), vehicle: saline with Tween-80): 10 of 10
survivor count (dose: 400.0 mg/kg/injection, schedule: Q01DX009 (ip), vehicle: saline with Tween-80): 10 of 10

CC(C)CC(NC(=O)OCc1ccccc1)C(=O)O (configuration not stated)
T/C [15]: 128 % of control [9 of 10 alive]
survivor count [14]: 10 of 10
survivor count [7]: 10 of 10
